This is an account of results in PMC3783171, “Sulfolobus chromatin proteins modulate strand displacement by DNA polymerase B1”.

Construct, isoform or probe ends are uncertain for at least one entry. Weaker means in comparison with the reference protein, sequence or condition of that experiment. Tags and fusion partners may be left off the protein sequences shown.

The target of data set [1] is T1, Cren7 (Sulfolobus solfataricus) (UniProt Q97ZE3).
T1 sequence (looked up, limits assumed): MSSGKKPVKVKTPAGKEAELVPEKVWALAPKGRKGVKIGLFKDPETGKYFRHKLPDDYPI
The data set is described as follows: thermal denaturation (A260). Conditions: R15 strand is RNA; Tm: 10 mM potassium phosphate pH 7.0, 20-90 C; recombinant protein; DNA:RNA hybrid.

Data set [2] deals with T1, Cren7 (Sulfolobus solfataricus). As to the kind of experiment: EMSA. The following applies: 4 mM Mg2+, 25 C; R30 strand is RNA; EMSA: 50 mM Tris-HCl pH 8.0, 2 mM beta-mercaptoethanol, 0.1 mg/ml BSA, 4 mM MgCl2, 5% glycerol, 2 nM probe, 10 min at 25 C (room temperature), 5% PAGE in 0.1x TBE; recombinant protein; label: 32P on R30; DNA:RNA hybrid.

As for “UGCAUCCUUCAAGAC / GTCTTGAAGGATGCA [15-bp RNA:DNA hybrid (R15/Com15)]”, in data set [1], the binding result was “binds more weakly”.

“UGCUUCCUUCAAUGUGCUGGGAUCCUACAA / TTGTAGGATCCCAGCACATTGAAGGAAGCA [30-bp RNA:DNA hybrid (R30/Com30)]”: the binding result in data set [2] is recorded as “binds more weakly”.
